According to publication PMC8933699:
Results are given in words; binding and its absence hold for the method and conditions named. In cells and extracts the contact can be indirect. Some binding calls cover weakened binding; strength is not graded here.

Protein sequences, listed by entry. Tags and fused reporters are not part of them. Lines headed by an entry give the natural chain unless they say otherwise; changes in a name come on top. Chains listed by the source or under a name are the forms on record and can include a tag or linker.
UniProt Q8TB45: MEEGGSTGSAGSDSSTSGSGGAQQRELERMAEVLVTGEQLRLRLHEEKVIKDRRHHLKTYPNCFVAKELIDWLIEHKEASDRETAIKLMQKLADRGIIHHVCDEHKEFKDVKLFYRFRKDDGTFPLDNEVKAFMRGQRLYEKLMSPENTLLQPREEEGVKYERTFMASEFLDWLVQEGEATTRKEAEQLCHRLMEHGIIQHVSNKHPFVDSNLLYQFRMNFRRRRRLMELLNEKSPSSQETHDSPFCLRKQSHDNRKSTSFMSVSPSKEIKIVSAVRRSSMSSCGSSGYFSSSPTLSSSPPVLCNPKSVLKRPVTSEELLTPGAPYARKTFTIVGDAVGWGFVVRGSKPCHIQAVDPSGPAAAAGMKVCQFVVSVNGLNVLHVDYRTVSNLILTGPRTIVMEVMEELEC
FLAG-tagged DEPTOR serine-to-aspartate (S-Asp) phosphomimetic mutant at residue 235 (Q8TB45, form named): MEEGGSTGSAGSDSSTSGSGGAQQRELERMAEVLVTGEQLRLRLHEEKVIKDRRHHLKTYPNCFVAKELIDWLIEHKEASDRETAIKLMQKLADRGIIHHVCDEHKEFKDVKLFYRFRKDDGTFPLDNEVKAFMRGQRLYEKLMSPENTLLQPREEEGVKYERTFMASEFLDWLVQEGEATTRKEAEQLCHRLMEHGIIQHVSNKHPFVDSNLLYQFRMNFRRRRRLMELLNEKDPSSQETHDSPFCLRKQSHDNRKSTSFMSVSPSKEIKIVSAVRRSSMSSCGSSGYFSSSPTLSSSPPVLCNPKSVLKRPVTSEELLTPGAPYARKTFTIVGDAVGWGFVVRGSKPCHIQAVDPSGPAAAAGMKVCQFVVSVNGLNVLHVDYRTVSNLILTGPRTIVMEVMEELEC
UniProt Q93009: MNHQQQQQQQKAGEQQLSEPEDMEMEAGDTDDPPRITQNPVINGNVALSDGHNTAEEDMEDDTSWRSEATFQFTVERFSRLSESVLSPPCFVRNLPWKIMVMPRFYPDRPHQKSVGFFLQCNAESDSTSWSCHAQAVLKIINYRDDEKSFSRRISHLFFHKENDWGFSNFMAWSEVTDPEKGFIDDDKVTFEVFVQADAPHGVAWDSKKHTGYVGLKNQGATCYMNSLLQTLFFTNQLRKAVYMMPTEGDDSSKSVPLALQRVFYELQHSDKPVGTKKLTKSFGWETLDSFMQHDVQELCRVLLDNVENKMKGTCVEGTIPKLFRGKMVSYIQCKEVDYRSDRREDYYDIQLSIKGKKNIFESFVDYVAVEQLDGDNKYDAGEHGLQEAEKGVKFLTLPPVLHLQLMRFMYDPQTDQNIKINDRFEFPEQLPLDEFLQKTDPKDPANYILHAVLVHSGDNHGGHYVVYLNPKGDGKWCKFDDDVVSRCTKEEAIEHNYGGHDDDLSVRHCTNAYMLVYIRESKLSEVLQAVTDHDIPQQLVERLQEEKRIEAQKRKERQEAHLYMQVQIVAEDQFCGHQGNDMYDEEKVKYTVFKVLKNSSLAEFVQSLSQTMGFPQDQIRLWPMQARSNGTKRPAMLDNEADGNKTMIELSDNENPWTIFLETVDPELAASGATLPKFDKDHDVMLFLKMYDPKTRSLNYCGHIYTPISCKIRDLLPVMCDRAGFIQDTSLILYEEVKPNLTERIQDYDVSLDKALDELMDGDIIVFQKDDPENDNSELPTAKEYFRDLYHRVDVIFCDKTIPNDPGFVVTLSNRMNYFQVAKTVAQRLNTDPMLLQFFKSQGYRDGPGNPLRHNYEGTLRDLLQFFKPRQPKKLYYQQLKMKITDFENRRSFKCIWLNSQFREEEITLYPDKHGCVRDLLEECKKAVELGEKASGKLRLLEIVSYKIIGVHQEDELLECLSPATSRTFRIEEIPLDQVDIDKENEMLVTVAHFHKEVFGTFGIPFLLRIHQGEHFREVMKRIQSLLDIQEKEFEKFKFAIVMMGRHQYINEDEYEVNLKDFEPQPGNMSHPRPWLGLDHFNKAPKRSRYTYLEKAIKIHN

How the values were obtained:
[1] = target: endogenous DEPTOR of primary MM cells (human (endogenous in primary MM cells)) (UniProt Q8TB45); assay: co-IP; endogenous DEPTOR immunoprecipitated from isolated primary MM cells of two patients, blotted for associated USP-7
[2] = target: FLAG-tagged DEPTOR serine-to-aspartate (S-Asp) phosphomimetic mutant at residue 235 (human) (UniProt Q8TB45); assay: co-IP; anti-FLAG immunoprecipitation of FLAG-DEPTOR from 8226 or OPM-2 MM cells, immunoblot for USP-7; 4 h in the presence of MG-132, with or without drug 3g (1 uM) or PD98059
[3] = target: FLAG-tagged WT DEPTOR (Disheveled, Egl-10, and Pleckstrin domain-containing mechanistic target of rapamycin-interacting protein) (human) (UniProt Q8TB45); assay: as above

Measured: binding

ubiquitin-specific protease 7 (USP-7) deubiquitinase (from UniProt Q93009 1-1102) (enzyme)
binds: [1] | [2] | [3]
